Source: patent US11728018B2, “Subject-specific system and method for prevention of body adaptation for chronic treatment of disease” (OBERON SCIENCES ILAN LTD., priority 2017, dated 2023)
At least one compound was matched to its structure with a doubt left.

Test system: PBMC from naïve GD patients
Assay: PBMC from Gaucher patients incubated with ConA, IFNg ELISA
Conditions: summary in words

## C[C@@H]1C[C@H]2[C@@H]3CCC4=CC(=O)C=C[C@]4(C)[C@@]3(F)[C@@H](O)C[C@]2(C)[C@@]1(O)C(=O)CO [Dexamethasone]
  effect on the inflammatory effect of PBMC from patients with Gaucher disease: profound effect on suppressing the inflammatory effect of PBMC
